Results as given in publication PMC12561193.
These are yes or no findings as the source states them, for the method shown. Binding seen in cells or lysates may run through a third protein. Some binding calls cover weakened binding; strength is not graded here.

What was measured:
[1] = target: T1, full-length mouse Glce (AAV-mGlce) (mouse) (UniProt Q9EPS3); test: co-IP; kidneys of Glce-/- mice with sham or UUO treatment after AAV injection; GAPDH as input loading control
T1 sequence: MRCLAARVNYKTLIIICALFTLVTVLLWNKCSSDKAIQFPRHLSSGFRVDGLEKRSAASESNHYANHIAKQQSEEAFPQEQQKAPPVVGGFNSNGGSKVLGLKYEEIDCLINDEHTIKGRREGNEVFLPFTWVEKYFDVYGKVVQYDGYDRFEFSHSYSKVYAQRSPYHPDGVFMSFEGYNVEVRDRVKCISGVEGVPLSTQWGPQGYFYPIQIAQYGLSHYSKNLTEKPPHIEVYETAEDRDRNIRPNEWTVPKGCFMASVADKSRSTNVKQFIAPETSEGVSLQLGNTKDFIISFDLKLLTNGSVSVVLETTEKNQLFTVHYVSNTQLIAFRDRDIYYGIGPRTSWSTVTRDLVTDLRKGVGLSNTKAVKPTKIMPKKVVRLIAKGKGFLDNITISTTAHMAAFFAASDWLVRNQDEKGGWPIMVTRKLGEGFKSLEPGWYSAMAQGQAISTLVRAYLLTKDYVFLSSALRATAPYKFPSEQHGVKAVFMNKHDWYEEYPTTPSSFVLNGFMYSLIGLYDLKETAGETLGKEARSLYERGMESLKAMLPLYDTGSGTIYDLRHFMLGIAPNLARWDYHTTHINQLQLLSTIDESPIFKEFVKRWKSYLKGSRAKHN

[2] = target: T2, Glce in HK-2 cells (human (endogenous in HK-2)) (UniProt O94923); test: co-IP; HK-2 cells, with or without EGFR activation by EGF; GAPDH as input loading control
T2 sequence: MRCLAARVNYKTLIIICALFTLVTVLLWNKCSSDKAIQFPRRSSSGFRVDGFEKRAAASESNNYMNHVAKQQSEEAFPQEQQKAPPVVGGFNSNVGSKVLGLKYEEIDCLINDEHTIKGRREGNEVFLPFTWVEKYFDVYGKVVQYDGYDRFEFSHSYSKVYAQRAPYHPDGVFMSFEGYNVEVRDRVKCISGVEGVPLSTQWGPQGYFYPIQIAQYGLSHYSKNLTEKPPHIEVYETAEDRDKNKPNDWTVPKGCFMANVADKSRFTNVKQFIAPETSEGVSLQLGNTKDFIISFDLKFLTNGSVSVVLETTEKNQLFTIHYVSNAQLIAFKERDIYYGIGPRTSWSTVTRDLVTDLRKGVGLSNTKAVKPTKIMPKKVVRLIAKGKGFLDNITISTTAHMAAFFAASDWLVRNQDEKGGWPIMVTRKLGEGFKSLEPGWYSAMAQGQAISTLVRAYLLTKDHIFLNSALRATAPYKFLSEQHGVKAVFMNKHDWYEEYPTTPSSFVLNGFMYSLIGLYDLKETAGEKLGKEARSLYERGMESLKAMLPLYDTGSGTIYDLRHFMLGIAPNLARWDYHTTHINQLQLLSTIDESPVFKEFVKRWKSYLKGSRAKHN

Row | binding [1] | binding [2] | Substance
1 | binds | – | EGFR in mouse kidney (from UniProt Q01279 25-1210) (receptor)
2 | – | binds | epidermal growth factor receptor (EGFR) in HK-2 cells (from UniProt P00533 25-1210)
